This is one part of the list.
Assays:
Assay in all cases: log2 fold change, soluble protein after heating vs DMSO (PISA); higher = thermal stabilisation; K562 lysate, 10 uM; active = over 0.2 and 3.5 SD of the protein, either way, in both replicates (recomputed)
vemurafenib = compound: CCCS(=O)(=O)Nc1ccc(F)c(C(=O)c2c[nH]c3ncc(-c4ccc(Cl)cc4)cc23)c1F [vemurafenib]
How it was run: (§1)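 To prepare the extract, K562 pellets were dounce-homogenised in PBS pH 7.4 with 1 mM MgCl2, giving crude material at 1 mg/mL protein. This was treated with 10 μM compound for 30 min, then heated in aliquots for 3 min over 48°C-58°C before pooling and addition of NP-40 to 0.5% at 4°C. Centrifugation at 21,000xg for 90 min left soluble protein in the supernatant, which TMTpro 16plex LC-MS/MS quantified with equalised channel sums. Results are log-two fold changes in thermal stability compared with solvent controls, from duplicates.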

Chains of the proteins cited; added tags and fusions are not shown. Lines headed by an entry give the natural chain unless they say otherwise; changes in a name come on top.
UniProt Q66K64, whole entry, looked up: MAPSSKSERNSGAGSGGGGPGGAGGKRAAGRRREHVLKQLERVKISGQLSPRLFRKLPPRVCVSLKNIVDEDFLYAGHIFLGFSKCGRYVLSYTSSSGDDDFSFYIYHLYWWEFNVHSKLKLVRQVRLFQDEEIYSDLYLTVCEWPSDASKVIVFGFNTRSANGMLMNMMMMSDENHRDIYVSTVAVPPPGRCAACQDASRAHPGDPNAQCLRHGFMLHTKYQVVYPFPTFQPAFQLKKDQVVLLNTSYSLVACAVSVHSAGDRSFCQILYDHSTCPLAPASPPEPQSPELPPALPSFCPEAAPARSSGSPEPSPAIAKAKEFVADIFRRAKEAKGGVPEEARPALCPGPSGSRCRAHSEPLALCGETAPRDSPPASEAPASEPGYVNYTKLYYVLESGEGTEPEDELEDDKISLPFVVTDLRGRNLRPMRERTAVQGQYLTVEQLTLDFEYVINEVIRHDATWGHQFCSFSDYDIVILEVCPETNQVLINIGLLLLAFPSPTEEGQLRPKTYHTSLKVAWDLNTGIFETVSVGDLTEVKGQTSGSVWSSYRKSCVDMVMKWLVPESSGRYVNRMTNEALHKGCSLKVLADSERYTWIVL
UniProt Q9NQI0, whole entry, looked up: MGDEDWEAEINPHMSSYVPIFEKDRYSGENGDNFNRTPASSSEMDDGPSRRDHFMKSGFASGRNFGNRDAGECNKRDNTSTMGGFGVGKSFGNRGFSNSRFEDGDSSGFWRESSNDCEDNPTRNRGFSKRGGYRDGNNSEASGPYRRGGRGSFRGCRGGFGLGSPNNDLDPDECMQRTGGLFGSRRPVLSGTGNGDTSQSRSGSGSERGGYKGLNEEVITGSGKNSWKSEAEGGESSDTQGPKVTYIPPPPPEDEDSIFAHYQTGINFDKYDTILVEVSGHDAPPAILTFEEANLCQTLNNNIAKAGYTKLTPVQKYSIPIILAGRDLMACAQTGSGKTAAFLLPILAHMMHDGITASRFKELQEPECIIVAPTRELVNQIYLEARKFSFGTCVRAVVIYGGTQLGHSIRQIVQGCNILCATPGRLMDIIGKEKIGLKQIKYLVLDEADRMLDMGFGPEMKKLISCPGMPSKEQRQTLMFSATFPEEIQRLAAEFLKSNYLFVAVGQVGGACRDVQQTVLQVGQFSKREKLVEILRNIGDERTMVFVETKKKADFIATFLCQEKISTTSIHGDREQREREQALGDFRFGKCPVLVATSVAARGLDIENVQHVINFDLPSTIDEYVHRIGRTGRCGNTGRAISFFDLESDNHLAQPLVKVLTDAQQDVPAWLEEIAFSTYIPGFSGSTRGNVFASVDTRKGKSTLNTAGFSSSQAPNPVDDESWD
UniProt Q9BUN8: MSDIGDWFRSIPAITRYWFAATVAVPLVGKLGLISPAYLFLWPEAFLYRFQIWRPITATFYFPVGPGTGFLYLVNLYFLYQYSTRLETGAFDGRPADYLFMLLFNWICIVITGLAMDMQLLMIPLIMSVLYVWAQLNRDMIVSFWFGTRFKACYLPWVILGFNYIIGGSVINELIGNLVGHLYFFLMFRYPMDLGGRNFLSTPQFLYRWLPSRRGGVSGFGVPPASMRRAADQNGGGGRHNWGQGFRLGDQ
UniProt P30046: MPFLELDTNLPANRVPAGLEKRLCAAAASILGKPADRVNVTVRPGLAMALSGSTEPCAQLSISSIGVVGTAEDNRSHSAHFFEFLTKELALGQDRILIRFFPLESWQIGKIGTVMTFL
UniProt Q9GZR7: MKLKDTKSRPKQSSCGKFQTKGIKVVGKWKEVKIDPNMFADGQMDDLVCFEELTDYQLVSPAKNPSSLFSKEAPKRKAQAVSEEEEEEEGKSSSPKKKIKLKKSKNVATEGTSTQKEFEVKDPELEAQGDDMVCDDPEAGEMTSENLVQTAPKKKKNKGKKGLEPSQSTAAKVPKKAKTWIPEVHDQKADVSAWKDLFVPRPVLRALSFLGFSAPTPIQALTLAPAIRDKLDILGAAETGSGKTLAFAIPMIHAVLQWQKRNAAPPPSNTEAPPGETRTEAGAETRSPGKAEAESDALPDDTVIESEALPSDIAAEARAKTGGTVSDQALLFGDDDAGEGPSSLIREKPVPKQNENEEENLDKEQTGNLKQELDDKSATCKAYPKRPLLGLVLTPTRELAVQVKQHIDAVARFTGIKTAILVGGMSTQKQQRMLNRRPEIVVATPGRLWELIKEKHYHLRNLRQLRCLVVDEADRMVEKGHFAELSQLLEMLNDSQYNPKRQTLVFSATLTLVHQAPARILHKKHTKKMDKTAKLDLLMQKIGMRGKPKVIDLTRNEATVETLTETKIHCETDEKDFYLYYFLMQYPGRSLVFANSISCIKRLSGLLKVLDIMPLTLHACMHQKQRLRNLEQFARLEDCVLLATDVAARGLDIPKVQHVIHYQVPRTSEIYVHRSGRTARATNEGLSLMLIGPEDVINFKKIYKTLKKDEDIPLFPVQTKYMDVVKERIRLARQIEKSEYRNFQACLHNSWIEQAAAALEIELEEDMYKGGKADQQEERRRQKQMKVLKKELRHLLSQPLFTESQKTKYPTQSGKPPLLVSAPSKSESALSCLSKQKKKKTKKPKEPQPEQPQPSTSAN
UniProt Q13561, whole entry, looked up: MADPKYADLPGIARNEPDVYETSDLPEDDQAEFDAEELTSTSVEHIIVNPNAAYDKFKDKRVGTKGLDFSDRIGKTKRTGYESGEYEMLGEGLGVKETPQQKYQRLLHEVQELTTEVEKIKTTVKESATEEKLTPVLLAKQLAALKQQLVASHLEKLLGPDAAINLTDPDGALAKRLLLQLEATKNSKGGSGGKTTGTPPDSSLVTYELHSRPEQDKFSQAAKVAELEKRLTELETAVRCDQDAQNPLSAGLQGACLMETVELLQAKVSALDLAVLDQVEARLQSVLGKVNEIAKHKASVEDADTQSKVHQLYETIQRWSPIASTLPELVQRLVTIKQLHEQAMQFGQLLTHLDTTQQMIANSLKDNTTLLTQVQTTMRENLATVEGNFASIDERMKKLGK
UniProt P51397: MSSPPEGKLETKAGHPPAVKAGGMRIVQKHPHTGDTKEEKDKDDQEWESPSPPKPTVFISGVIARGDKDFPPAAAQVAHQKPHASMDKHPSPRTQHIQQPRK
UniProt O43583: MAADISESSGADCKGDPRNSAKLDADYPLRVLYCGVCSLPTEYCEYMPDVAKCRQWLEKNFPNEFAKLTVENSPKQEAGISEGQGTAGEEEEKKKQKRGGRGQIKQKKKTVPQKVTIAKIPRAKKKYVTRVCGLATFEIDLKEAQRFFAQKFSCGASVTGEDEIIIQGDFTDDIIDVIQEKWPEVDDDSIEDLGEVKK
UniProt O00571: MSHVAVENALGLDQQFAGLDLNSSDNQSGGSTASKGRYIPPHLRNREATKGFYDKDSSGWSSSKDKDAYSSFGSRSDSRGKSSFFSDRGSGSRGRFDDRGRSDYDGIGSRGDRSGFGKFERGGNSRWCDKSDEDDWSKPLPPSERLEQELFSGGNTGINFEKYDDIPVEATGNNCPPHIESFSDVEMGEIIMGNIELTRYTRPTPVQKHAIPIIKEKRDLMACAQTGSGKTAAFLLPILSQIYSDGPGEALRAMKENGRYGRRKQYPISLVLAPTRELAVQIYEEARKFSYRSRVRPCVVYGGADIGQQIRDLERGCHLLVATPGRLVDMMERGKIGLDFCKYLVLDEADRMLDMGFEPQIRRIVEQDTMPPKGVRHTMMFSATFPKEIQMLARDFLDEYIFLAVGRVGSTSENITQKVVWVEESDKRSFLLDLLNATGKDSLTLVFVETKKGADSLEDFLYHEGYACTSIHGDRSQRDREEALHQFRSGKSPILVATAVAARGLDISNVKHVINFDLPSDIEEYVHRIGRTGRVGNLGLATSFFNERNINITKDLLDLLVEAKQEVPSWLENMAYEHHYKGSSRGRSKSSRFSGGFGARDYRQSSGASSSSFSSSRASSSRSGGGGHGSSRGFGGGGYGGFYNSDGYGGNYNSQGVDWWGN
UniProt Q8TCE6, whole entry, looked up: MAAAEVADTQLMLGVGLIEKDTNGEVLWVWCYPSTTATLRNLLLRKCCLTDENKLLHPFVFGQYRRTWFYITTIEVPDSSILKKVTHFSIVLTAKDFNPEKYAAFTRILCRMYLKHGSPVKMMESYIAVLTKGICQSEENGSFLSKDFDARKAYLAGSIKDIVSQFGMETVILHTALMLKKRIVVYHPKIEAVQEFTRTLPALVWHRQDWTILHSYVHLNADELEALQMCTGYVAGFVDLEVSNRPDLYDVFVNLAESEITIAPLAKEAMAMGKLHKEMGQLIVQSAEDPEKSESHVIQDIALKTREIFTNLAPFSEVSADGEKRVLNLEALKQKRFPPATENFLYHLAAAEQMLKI
UniProt P61803: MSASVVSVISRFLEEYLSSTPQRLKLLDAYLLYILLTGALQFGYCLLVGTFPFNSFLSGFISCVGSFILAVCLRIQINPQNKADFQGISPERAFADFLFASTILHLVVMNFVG
UniProt Q9NUU7: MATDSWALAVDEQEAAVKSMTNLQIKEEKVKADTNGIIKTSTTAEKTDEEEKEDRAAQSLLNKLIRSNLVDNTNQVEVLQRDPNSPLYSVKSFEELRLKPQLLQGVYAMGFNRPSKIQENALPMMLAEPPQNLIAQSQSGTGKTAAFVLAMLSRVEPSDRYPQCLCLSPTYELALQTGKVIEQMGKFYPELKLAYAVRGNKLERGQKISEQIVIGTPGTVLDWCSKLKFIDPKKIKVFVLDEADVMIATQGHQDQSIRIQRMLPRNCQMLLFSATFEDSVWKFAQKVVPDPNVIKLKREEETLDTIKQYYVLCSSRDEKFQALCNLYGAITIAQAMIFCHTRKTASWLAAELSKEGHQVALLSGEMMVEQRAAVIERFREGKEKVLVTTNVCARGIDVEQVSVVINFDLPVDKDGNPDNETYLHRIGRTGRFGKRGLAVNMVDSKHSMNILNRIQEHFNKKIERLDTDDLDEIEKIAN
UniProt Q9NV06: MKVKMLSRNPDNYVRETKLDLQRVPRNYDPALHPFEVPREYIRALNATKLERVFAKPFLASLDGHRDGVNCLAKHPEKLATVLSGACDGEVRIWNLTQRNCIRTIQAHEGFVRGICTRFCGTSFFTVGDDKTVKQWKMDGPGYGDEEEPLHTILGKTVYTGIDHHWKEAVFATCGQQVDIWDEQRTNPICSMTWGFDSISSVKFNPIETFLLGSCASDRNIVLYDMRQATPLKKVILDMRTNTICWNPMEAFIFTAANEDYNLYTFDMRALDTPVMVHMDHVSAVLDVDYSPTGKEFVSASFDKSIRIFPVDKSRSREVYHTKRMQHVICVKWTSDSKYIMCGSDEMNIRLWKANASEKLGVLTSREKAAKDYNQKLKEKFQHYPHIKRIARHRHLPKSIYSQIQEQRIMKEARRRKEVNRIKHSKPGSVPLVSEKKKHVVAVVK
UniProt Q9UJV9: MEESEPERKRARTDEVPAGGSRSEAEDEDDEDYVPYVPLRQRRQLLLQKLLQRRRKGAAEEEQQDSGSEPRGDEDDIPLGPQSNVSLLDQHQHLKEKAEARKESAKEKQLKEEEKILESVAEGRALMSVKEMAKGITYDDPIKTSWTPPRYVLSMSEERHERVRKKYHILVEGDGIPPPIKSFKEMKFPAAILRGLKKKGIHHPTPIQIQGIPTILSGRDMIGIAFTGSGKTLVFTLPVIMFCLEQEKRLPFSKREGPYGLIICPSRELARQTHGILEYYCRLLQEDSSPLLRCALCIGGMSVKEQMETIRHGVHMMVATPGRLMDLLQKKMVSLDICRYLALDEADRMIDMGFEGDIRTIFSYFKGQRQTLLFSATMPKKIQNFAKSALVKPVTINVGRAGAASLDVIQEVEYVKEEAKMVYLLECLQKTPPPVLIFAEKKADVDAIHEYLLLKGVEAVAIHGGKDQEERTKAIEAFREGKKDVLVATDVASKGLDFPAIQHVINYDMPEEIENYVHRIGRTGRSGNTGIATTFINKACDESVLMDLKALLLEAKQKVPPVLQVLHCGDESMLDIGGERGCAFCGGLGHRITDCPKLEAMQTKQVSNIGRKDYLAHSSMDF
UniProt Q9UK59: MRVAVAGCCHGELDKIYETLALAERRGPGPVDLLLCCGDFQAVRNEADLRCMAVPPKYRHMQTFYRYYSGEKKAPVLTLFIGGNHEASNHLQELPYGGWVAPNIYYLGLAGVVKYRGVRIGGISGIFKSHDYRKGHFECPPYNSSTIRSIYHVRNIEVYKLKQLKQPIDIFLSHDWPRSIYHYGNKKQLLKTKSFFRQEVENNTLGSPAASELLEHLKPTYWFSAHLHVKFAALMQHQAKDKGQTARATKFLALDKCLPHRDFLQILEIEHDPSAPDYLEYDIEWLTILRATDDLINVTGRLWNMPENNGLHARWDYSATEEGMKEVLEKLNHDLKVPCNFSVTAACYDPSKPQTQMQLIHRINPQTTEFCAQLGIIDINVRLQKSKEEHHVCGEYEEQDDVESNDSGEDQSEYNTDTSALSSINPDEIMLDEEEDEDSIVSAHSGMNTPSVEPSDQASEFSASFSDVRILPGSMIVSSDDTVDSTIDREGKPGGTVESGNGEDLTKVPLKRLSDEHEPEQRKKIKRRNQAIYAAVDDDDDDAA

[1] = compound: CCCS(=O)(=O)Nc1ccc(F)c(C(=O)c2c[nH]c3ncc(Cl)cc23)c1F
How it was run: as §1

barasertib = compound: CCN(CCCOc1ccc2c(Nc3cc(CC(=O)Nc4cccc(F)c4)[nH]n3)ncnc2c1)CCOP(=O)(O)O [barasertib]
How it was run: as §1

[2] = compound: CC[C@@H]1C(=O)N(C)c2cnc(Nc3ccc(C(=O)NC4CCN(C)CC4)cc3OC)nc2N1C1CCCC1
How it was run: as §1

volasertib = compound: CC[C@@H]1C(=O)N(C)c2cnc(Nc3ccc(C(=O)N[C@H]4CC[C@H](N5CCN(CC6CC6)CC5)CC4)cc3OC)nc2N1C(C)C [volasertib]
How it was run: as §1

[3] = compound: CCn1c(C(=O)N(C2CC2)C2CC2)cc2c3c(ncn3C)c(Nc3cc(C)n(C)n3)nc21
How it was run: as §1

[4] = compound: CCn1cc(-c2ccnc3[nH]c(-c4cccc(CN(C)C)c4)cc23)c(-c2ccc(NC(=O)N(C)C)cc2)n1
How it was run: as §1

[5] = compound: CN1CCC(CNc2ccc3ncc(-c4cccc(OC(F)(F)F)c4)n3n2)CC1
How it was run: as §1

saracatinib = compound: CN1CCN(CCOc2cc(OC3CCOCC3)c3c(Nc4c(Cl)ccc5c4OCO5)ncnc3c2)CC1 [saracatinib]
How it was run: as §1

sotrastaurin = compound: CN1CCN(c2nc(C3=C(c4c[nH]c5ccccc45)C(=O)NC3=O)c3ccccc3n2)CC1 [sotrastaurin]
How it was run: as §1

Measured: log2 fold change

DENND4B (UniProt O75064)
inactive: vemurafenib 0.034 | [1] 0.015 | barasertib 0.008 | [2] 0.07 | volasertib 0.031 | [3] -0.005 | [4] -0.095 | [5] 0.044 | saracatinib -0.03 | sotrastaurin 0.008

DCAF15 (UniProt Q66K64)
inactive: vemurafenib -0.031 | [1] 0.052 | barasertib 0.047 | [2] -0.053 | volasertib -0.017 | [3] -0.028 | [4] -0.189 | [5] 0.137 | saracatinib -0.057 | sotrastaurin -0.021

DDX31 (UniProt Q9H8H2)
inactive: vemurafenib -0.007 | [1] 0.033 | barasertib 0.09 | [2] 0.043 | volasertib -0.04 | [3] -0.036 | [4] -0.02 | [5] 0.016 | saracatinib 0.023 | sotrastaurin -0.032

DDX42 (UniProt Q86XP3)
inactive: vemurafenib 0.007 | [1] 0.014 | barasertib 0.03 | [2] -0.005 | volasertib -0.013 | [3] -0.03 | [4] -0.008 | [5] -0.003 | saracatinib -0.024 | sotrastaurin 0.035

DDX4 (UniProt Q9NQI0)
inactive: vemurafenib -0.044 | [1] -0.015 | barasertib 0.069 | [2] -0.071 | volasertib -0.021 | [3] 0.015 | [4] -0.167 | [5] 0 | saracatinib -0.027

DDB1 (UniProt Q16531)
inactive: vemurafenib -0.002 | [1] 0.01 | barasertib -0.001 | [2] -0.025 | volasertib 0.023 | [3] -0.007 | [4] 0 | [5] 0.044 | saracatinib -0.019 | sotrastaurin 0.019

DEF6 (UniProt Q9H4E7)
inactive: vemurafenib -0.004 | [1] -0.005 | barasertib -0.05 | [2] -0.101 | volasertib -0.05 | [3] -0.033 | [4] -0.071 | [5] 0.049 | saracatinib 0.07 | sotrastaurin 0.004

DERL1 (UniProt Q9BUN8)
inactive: vemurafenib 0.067 | [1] 0.012 | barasertib -0.075 | [2] 0.098 | volasertib 0.013 | [3] -0.02 | [4] -0.213 | [5] 0.082 | saracatinib -0.074 | sotrastaurin 0.054

DDT (UniProt P30046)
inactive: vemurafenib -0.009 | [1] -0.038 | barasertib 0.166 | [2] -0.002 | volasertib 0.05 | [3] 0.045 | [4] -0.136 | [5] 0.064 | saracatinib -0.012 | sotrastaurin -0.063

DCTN1 (UniProt Q14203)
inactive: vemurafenib -0.025 | [1] 0.008 | barasertib 0.021 | [2] -0.021 | volasertib -0.048 | [3] 0.002 | [4] 0.034 | [5] -0.034 | saracatinib 0.029 | sotrastaurin -0.003

DDX24 (UniProt Q9GZR7)
inactive: vemurafenib 0.008 | [1] 0.008 | barasertib -0.015 | [2] -0.015 | volasertib -0.009 | [3] 0.001 | [4] -0.021 | [5] 0.041 | saracatinib 0.026 | sotrastaurin -0.016

DCTN2 isoform 3 (UniProt Q13561)
inactive: vemurafenib -0.005 | [1] -0.007 | barasertib 0.076 | [2] -0.001 | volasertib 0.034 | [3] -0.006 | [4] -0.129 | [5] 0.049 | saracatinib -0.025 | sotrastaurin -0.003

DAP (UniProt P51397)
inactive: vemurafenib -0.02 | [1] 0.007 | barasertib 0.097 | [2] 0.11 | volasertib 0.024 | [3] -0.04 | [4] -0.031 | [5] 0.092 | saracatinib 0.003 | sotrastaurin -0.008

DEGS1 (UniProt O15121)
inactive: vemurafenib 0.117 | [1] 0.056 | barasertib 0.005 | [2] 0.034 | volasertib 0.007 | [3] -0.055 | [4] 0.044 | [5] 0.017 | saracatinib 0.041 | sotrastaurin 0.001

DENR (UniProt O43583)
inactive: vemurafenib -0.005 | [1] -0.051 | barasertib -0.031 | [2] 0.036 | volasertib 0.034 | [3] 0.02 | [4] 0.07 | [5] 0.007 | saracatinib -0.017 | sotrastaurin -0.029

DDX19B (UniProt Q9UMR2)
inactive: vemurafenib -0.002 | [1] -0.002 | barasertib 0.119 | [2] 0.007 | volasertib -0.034 | [3] -0.008 | [4] -0.077 | [5] 0.028 | saracatinib 0 | sotrastaurin 0.018

DDX3X (UniProt O00571)
inactive: vemurafenib 0.052 | [1] 0.014 | barasertib -0.022 | [2] -0.074 | volasertib -0.021 | [3] 0.027 | [4] -0.122 | [5] -0.027 | saracatinib 0.027 | sotrastaurin -0.002

DBT (UniProt P11182)
inactive: vemurafenib -0.042 | [1] 0.018 | barasertib 0.014 | [2] -0.035 | volasertib -0.013 | [3] -0.009 | [4] -0.066 | [5] 0.043 | saracatinib -0.013 | sotrastaurin 0.008

DENND10 (UniProt Q8TCE6)
inactive: vemurafenib 0.019 | [1] 0.082 | barasertib 0.007 | [2] -0.054 | volasertib 0 | [3] 0.006 | [4] 0.012 | [5] -0.006 | saracatinib 0.036 | sotrastaurin 0.054

DAP3 (UniProt P51398)
inactive: vemurafenib -0.031 | [1] 0.021 | barasertib 0.019 | [2] 0.033 | volasertib -0.026 | [3] 0.01 | [4] -0.016 | [5] -0.063 | saracatinib 0.017 | sotrastaurin -0.028

DBNL isoform 3 (UniProt Q9UJU6)
inactive: vemurafenib 0.011 | [1] 0.004 | barasertib -0.025 | [2] 0.029 | volasertib 0.02 | [3] -0.023 | [4] -0.052 | [5] 0.02 | saracatinib 0.012 | sotrastaurin -0.02

DDX50 (UniProt Q9BQ39)
inactive: vemurafenib 0.097 | [1] 0.079 | barasertib -0.208 | [2] -0.219 | volasertib -0.022 | [3] 0.042 | [4] -0.063 | [5] 0.012 | saracatinib -0.01 | sotrastaurin -0.022

DCTN2 (UniProt Q13561)
inactive: vemurafenib 0.335 | [1] -0.015 | barasertib 0.042 | [2] 0.14 | volasertib 0.13 | [3] -0.028 | [4] -0.037 | [5] 0.033 | saracatinib 0.155 | sotrastaurin -0.152

DAD1 (UniProt P61803)
inactive: vemurafenib 0.168 | [1] 0.062 | barasertib 0.177 | [2] -0.085 | volasertib -0.08 | [3] 0.007 | [4] 0.119 | [5] -0.005 | saracatinib 0.18 | sotrastaurin -0.04

DDX19A (UniProt Q9NUU7)
inactive: vemurafenib -0.029 | [1] -0.005 | barasertib 0.006 | [2] 0.019 | volasertib 0.008 | [3] 0.055 | [4] 0.012 | [5] -0.029 | saracatinib -0.008 | sotrastaurin 0.042

Reprinted from the results shown (8 entries):
DENND4B (UniProt O75064)
inactive: vemurafenib 0.034 | [1] 0.015 | barasertib 0.008 | [2] 0.07 | volasertib 0.031 | [3] -0.005 | [4] -0.095 | [5] 0.044 | saracatinib -0.03 | sotrastaurin 0.008

DCAF15 (UniProt Q66K64)
inactive: vemurafenib -0.031 | [1] 0.052 | barasertib 0.047 | [2] -0.053 | volasertib -0.017 | [3] -0.028 | [4] -0.189 | [5] 0.137 | saracatinib -0.057 | sotrastaurin -0.021

DDX31 (UniProt Q9H8H2)
inactive: vemurafenib -0.007 | [1] 0.033 | barasertib 0.09 | [2] 0.043 | volasertib -0.04 | [3] -0.036 | [4] -0.02 | [5] 0.016 | saracatinib 0.023 | sotrastaurin -0.032

DDX42 (UniProt Q86XP3)
inactive: vemurafenib 0.007 | [1] 0.014 | barasertib 0.03 | [2] -0.005 | volasertib -0.013 | [3] -0.03 | [4] -0.008 | [5] -0.003 | saracatinib -0.024 | sotrastaurin 0.035

DDX4 (UniProt Q9NQI0)
inactive: vemurafenib -0.044 | [1] -0.015 | barasertib 0.069 | [2] -0.071 | volasertib -0.021 | [3] 0.015 | [4] -0.167 | [5] 0 | saracatinib -0.027

DDB1 (UniProt Q16531)
inactive: vemurafenib -0.002 | [1] 0.01 | barasertib -0.001 | [2] -0.025 | volasertib 0.023 | [3] -0.007 | [4] 0 | [5] 0.044 | saracatinib -0.019 | sotrastaurin 0.019

DEF6 (UniProt Q9H4E7)
inactive: vemurafenib -0.004 | [1] -0.005 | barasertib -0.05 | [2] -0.101 | volasertib -0.05 | [3] -0.033 | [4] -0.071 | [5] 0.049 | saracatinib 0.07 | sotrastaurin 0.004

DERL1 (UniProt Q9BUN8)
inactive: vemurafenib 0.067 | [1] 0.012 | barasertib -0.075 | [2] 0.098 | volasertib 0.013 | [3] -0.02 | [4] -0.213 | [5] 0.082 | saracatinib -0.074 | sotrastaurin 0.054

More entries follow.

DCAF4L2 (UniProt Q8NA75)
inactive: vemurafenib 0.22 | [1] 0.018 | barasertib 0.059 | [2] -0.017 | volasertib -0.026 | [3] 0.073 | [4] 0.13 | [5] -0.121 | saracatinib -0.048 | sotrastaurin 0.079

DCAF13 (UniProt Q9NV06)
inactive: vemurafenib 0.006 | [1] 0.054 | barasertib 0.063 | [2] 0.066 | volasertib -0.027 | [3] -0.032 | [4] 0.074 | [5] 0.004 | saracatinib 0.003 | sotrastaurin 0.043

DCPS (UniProt Q96C86)
inactive: vemurafenib 0.033 | [1] -0.007 | barasertib 0.024 | [2] 0.089 | volasertib 0 | [3] 0.01 | [4] -0.003 | [5] 0.023 | saracatinib 0.001 | sotrastaurin 0.008

DDX41 (UniProt Q9UJV9)
inactive: vemurafenib 0.047 | [1] -0.008 | barasertib 0.046 | [2] 0.016 | volasertib -0.039 | [3] 0.047 | [4] -0.071 | [5] 0.042 | saracatinib -0.016 | sotrastaurin 0.012

DBR1 (UniProt Q9UK59)
inactive: vemurafenib 0.083 | [1] 0.032 | barasertib -0.023 | [2] -0.003 | volasertib -0.009 | [3] -0.025 | [4] -0.164 | [5] 0.089 | saracatinib 0 | sotrastaurin -0.019

Source: the supplement of paper PMC10849652
